Test results taken from article PMC6459490.
Results are given in words; binding and its absence hold for the method and conditions named. In cells and extracts the contact can be indirect. Sequences can lack the tags named with a protein.

Target: T1, Eap1–PA (eukaryotic translation initiation factor 4E-associated protein 1, protein A tagged) (S. cerevisiae) (UniProt P36041)
T1 sequence: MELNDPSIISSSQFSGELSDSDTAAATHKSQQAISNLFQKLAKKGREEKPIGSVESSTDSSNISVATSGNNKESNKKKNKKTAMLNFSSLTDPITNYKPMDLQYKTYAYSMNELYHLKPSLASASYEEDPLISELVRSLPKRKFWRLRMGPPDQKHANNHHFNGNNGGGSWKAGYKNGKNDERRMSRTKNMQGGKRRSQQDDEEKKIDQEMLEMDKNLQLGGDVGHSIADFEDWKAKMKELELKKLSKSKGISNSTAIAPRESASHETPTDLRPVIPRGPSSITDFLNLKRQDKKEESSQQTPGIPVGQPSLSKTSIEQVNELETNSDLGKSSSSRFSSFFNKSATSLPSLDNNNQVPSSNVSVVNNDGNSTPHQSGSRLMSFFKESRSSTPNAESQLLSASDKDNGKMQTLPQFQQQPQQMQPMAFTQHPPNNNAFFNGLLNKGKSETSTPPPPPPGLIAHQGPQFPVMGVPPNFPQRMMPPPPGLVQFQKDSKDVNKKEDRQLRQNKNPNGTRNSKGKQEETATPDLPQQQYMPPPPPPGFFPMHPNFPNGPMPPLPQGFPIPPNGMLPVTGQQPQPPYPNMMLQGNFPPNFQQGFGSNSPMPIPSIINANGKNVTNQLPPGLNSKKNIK
Test: co-IP; PA-tagged Eap1 precipitated with IgG Sepharose beads from lysates of yeast cells starved in SD-N for 2 h; 4 °C, 2 to 10 h, lysis buffer with RNase inhibitor; Dhh1–3HA detected by western blot (anti-HA); RNase treatment (0.1 μg/μl, 8 to 10 h) significantly decreased the amount of Dhh1–3HA

- binding: no binding
B1: Dhh1[1–425]–3HA (domain or fragment, UniProt P39517 1-425)
chain: MGSINNNFNTNNNSNTDLDRDWKTALNIPKKDTRPQTDDVLNTKGNTFEDFYLKRELLMGIFEAGFEKPSPIQEEAIPVAITGRDILARAKNGTGKTAAFVIPTLEKVKPKLNKIQALIMVPTRELALQTSQVVRTLGKHCGISCMVTTGGTNLRDDILRLNETVHILVGTPGRVLDLASRKVADLSDCSLFIMDEADKMLSRDFKTIIEQILSFLPPTHQSLLFSATFPLTVKEFMVKHLHKPYEINLMEELTLKGITQYYAFVEERQKLHCLNTLFSKLQINQAIIFCNSTNRVELLAKKITDLGYSCYYSHARMKQQERNKVFHEFRQGKVRTLVCSDLLTRGIDIQAVNVVINFDFPKTAETYLHRIGRSGRFGHLGLAINLINWNDRFNLYKIEQELGTEIAAIPATIDKSLYVAENDET
